Values quoted from earlier work, collected in patent publication US20080031938A1, “BIOCIDAL MATERIALS FOR TREATMENT AGAINST PATHOGENS” (priority 2004, published 2008).
Some entries share one result that the patent states for a list of compounds. For at least one compound, name, drawing or mass did not settle the structure.

Test system: gram-positive and gram-negative microorganisms
Settings: wide range of gram-positive and gram-negative microorganisms

Compound: [Cl][Hg][Cl] [Mercury as chloride]
- concentration inhibiting growth: less than 1 ppm
